Data published in PubChem BioAssay (Tox21).
Values joined by “and” are separate entries in the source; they are usually repeats but may differ in a detail not shown here. Identical values can stand only once. The inconclusive results got no clear call from the source; some entries with a clear call stand among them for comparison. Potencies of inconclusive entries are doubtful fits and often do not repeat. Active and inactive are the calls of the source. The call rests on the fitted dose curve; in most records, active means well fitted cell-killing curve with a large enough effect in the repeat runs; inconclusive means weak or mixed curves, or effect the other way; inactive means flat fitted curve, though single readings scatter.

test: cAMP Responsive Elements (CRE) small molecule agonists, cell-based qHTS assay: qHTS cell viability counter screen (AID 2060914); settings: CRE-bla HEK293T viability, CellTiter-Glo luminescence, 5 h; series mostly up to 92.4 µM; activity change, negative = cytotoxicity: at the top concentration; further: nearly all actives have a fitted effect of over 50% in size
Outline: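 CRE-bla HEK293T cells in 10% dialyzed FBS medium were exposed to compounds for 3 h at 37C after 18 h plating. CellTiter-Glo was then added in the same wells, and luminescence was read after 30 min at room temperature.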
On the % scale 0 is the no-effect control and ±100 the full control effect; potency means the concentration at half of the fitted maximal effect.

**Q.** For `CN1C(=O)c2ccc([N+](=O)[O-])cc2C1=O`, which “activity change, negative = cytotoxicity” value is on record?
**A.** The value was inactive: 8%.

**Q.** For `CN(C)CCOc1ccc(/C(=C(/CCCl)c2ccccc2)c2ccccc2)cc1`, which Potency is on record?
**A.** Its Potency is inconclusive: 64.2 µM [cytotoxic, single point].

**Q.** With `CC(=O)O[C@]1(C(C)=O)CC[C@H]2[C@@H]3C=C(Cl)C4=CC(=O)[C@@H]5C[C@@H]5[C@]4(C)[C@H]3CC[C@@]21C` as the molecule, how does the Potency read?
**A.** Its Potency is inconclusive: 0.0027 µM [rising, full curve, poor fit].

**Q.** Which “activity change, negative = cytotoxicity” value does the source give for `COc1ccc(CCN(C)CCCN2CCc3cc(OC)c(OC)cc3CC2=O)cc1OC` here?
**A.** The value was inactive: -0.313% [at 42.5 µM].

**Q.** Which Potency does the source give for `CCCCC1C(=O)N(c2ccccc2)N(c2ccccc2)C1=O` here?
**A.** The Potency was inconclusive: 1.88 µM [cytotoxic, single point].

**Q.** Which Potency does the source give for `Cc1c(F)c(N2CCNC(C)C2)cc2c1c(=O)c(C(=O)O)cn2C1CC1` (centres undefined) here?
**A.** The Potency was inconclusive: 33.5 µM [cytotoxic, single point].

**Q.** Which Potency does the source give for `CC(C)COC(=O)c1ccc(N)cc1` here?
**A.** The Potency was inconclusive: 33.5 µM [cytotoxic, single point].

**Q.** Which “activity change, negative = cytotoxicity” value does the source give for `[Ca+2]` here?
**A.** The value was inactive: -4.75%.

**Q.** For `CCNC(=O)C(C)OC(=O)Nc1ccccc1` (centres undefined), which “activity change, negative = cytotoxicity” value is on record?
**A.** The value was inactive: -2.31%.

**Q.** For `CCCCCCCOC(C)=O`, which “activity change, negative = cytotoxicity” value is on record?
**A.** The value was inactive: 3.23%.

**Q.** With `CCCCC(CC)COC(=O)c1ccc(C(=O)OCC(CC)CCCC)cc1` (centres undefined) as the molecule, how does the Potency read?
**A.** Its Potency is inconclusive: 27.3 µM [cytotoxic, single point].

**Q.** For `CC(C)OC(=O)c1cc(C(=O)OC(C)C)cc([N+](=O)[O-])c1`, which Potency is on record?
**A.** The Potency was inconclusive: 27.9 µM [cytotoxic, partial curve, poor fit].

**Q.** Which Potency does the source give for `C=CC(C)(C)C` here?
**A.** The Potency was inconclusive: 2.73 µM [cytotoxic, single point].

**Q.** For `CC(C)(C)CC(C)(C)c1ccccc1O`, which Potency is on record?
**A.** Its Potency is active: 61.4 µM.

**Q.** With `C/C=C1\[C@H]2C=C(C)C[C@]1(N)c1ccc(=O)[nH]c1C2` as the molecule, how does the “activity change, negative = cytotoxicity” value read?
**A.** Its value is inactive: 13.2% [at 42.5 µM].

**Q.** Which Potency does the source give for `CN(C)CCN(C)CCN(C)C` here?
**A.** The Potency was inconclusive: 0.0017 µM [cytotoxic, full curve, poor fit].

**Q.** With `N#CCCCC(C#N)CCC#N` (centres undefined) as the molecule, how does the Potency read?
**A.** The Potency was inconclusive: 0.243 µM [cytotoxic, single point].

**Q.** For `O=C(OCCOCCO)c1ccccc1Nc1cccc(C(F)(F)F)c1`, which Potency is on record?
**A.** The Potency was inconclusive: 18.8 µM [cytotoxic, single point].

**Q.** Which Potency does the source give for `COC(=O)c1ccc(C(=O)OC)cc1` here?
**A.** The Potency was “inactive”.

**Q.** Which “activity change, negative = cytotoxicity” value does the source give for `Cc1cccc(CN2CCN(C(c3ccccc3)c3ccc(Cl)cc3)CC2)c1` (centres undefined) here?
**A.** Its value is inactive: -18.6% [at 42.5 µM].

**Q.** With `Nc1ccc(S(=O)(=O)Nc2ccc(Cl)nn2)cc1` as the molecule, how does the “activity change, negative = cytotoxicity” value read?
**A.** Its value is inactive: 9.37% [at 42.5 µM].

**Q.** Which Potency does the source give for `CC(C)N=C(N)/N=C(\N)Nc1ccc(Cl)cc1` here?
**A.** Its Potency is inconclusive: 13.3 µM [cytotoxic, single point].

**Q.** With `CCO[Si](C)(OCC)OCC` as the molecule, how does the “activity change, negative = cytotoxicity” value read?
**A.** Its value is inactive: 12%.

**Q.** For `NNc1nnc(NN)c2ccccc12`, which Potency is on record?
**A.** Its Potency is inconclusive: 0.298 µM [cytotoxic, single point].

**Q.** With `CCNC(=S)NCC` as the molecule, how does the Potency read?
**A.** The Potency was inconclusive: 1.37 µM [cytotoxic, single point].

**Q.** For `C[C@]12CCC(=O)C=C1CC[C@@H]1[C@@H]2C(=O)C[C@@]2(C)[C@H]1CC[C@]2(O)C(=O)CO`, which Potency is on record?
**A.** The Potency was inconclusive: 26.6 µM [cytotoxic, single point].

**Q.** With `CCc1cccc(CC)c1NC(=O)CN(CC(=O)O)CC(=O)O` as the molecule, how does the Potency read?
**A.** The Potency was inconclusive: 2.98 µM [cytotoxic, single point].

**Q.** With `Oc1c(Cl)cc(Cl)c2cccnc12` as the molecule, how does the Potency read?
**A.** The Potency was inconclusive: 7.5 µM [cytotoxic, single point].

**Q.** For `CCCCCCCCCO`, which “activity change, negative = cytotoxicity” value is on record?
**A.** The value was inactive: 11.8%.

**Q.** Which Potency does the source give for `CCCCC(CC)C(=O)O` (centres undefined) here?
**A.** Its Potency is inconclusive: 0.312 µM [cytotoxic, single point].

**Q.** With `Nc1nc(=S)c2[nH]cnc2[nH]1` as the molecule, how does the Potency read?
**A.** The Potency was inconclusive: 3.86 µM [cytotoxic, full curve] and inconclusive: 5.31 µM [cytotoxic, partial curve].

**Q.** For `CC[C@]12CCCN3CCc4c(n(c5ccccc45)[C@@](O)(C(=O)OC)C1)[C@@H]32`, which Potency is on record?
**A.** Its Potency is “inactive”.

**Q.** For `CN1CCCN=C1/C=C/c1cccs1`, which Potency is on record?
**A.** Its Potency is inconclusive: 1.06 µM [cytotoxic, single point].

**Q.** Which “activity change, negative = cytotoxicity” value does the source give for `NS(=O)(=O)c1ccc(N2CCCCS2(=O)=O)cc1` here?
**A.** Its value is inactive: 2.73% [at 42.5 µM].

**Q.** With `CC(N)=O` as the molecule, how does the Potency read?
**A.** Its Potency is inconclusive: 6.42 µM [cytotoxic, single point].

**Q.** With `O=C(NCN1CCOCC1)c1cnccn1` as the molecule, how does the Potency read?
**A.** The Potency was inconclusive: 0.668 µM [cytotoxic, single point].

**Q.** With `N[C@@H](COP(=O)(O)O)C(=O)O` as the molecule, how does the Potency read?
**A.** The Potency was inconclusive: 0.13 µM [cytotoxic, single point].

**Q.** Which Potency does the source give for `C[Si]1(C)N[Si](C)(C)N[Si](C)(C)N1` here?
**A.** The Potency was inconclusive: 30.6 µM [cytotoxic, full curve, poor fit].

**Q.** With `c1ccc2c(c1)-c1cccc3c1c-2cc1ccccc13` as the molecule, how does the Potency read?
**A.** The Potency was “inactive”.
